This is one part of the list.
What was measured:
Assay in all cases: glycan array binding signal (z-score within array); higher = stronger binding
Conditions in all cases: glycan notation: IUPAC condensed, linker removed
Fuc(a1-2)Gal = biological target: Fuc(a1-2)Gal
Outline: (§1)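 Glycan array data came from 3228 arrays in the Consortium for Functional Glycomics database, and only arrays with an available protein sequence were kept. Glycan names were put into IUPAC-condensed notation, and columns mapping to the same glycan were averaged. The binding signal is a within-array Z-score, averaged across arrays of one protein sequence run at different concentrations or buffers and across linkers. A negative Z-score can be read as non-binding.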

Fuc(a1-2)Gal(b1-3)GalNAc = biological target: Fuc(a1-2)Gal(b1-3)GalNAc
Outline: as §1

[1] = biological target: Fuc(a1-2)Gal(b1-3)GalNAc(a1-3)[Fuc(a1-2)]Gal(b1-4)Glc
Outline: as §1

[2] = biological target: Fuc(a1-2)Gal(b1-3)GalNAc(a1-3)[Fuc(a1-2)]Gal(b1-4)GlcNAc
Outline: as §1

[3] = biological target: Fuc(a1-2)Gal(b1-3)GalNAc(b1-3)Gal
Outline: as §1

[4] = biological target: Fuc(a1-2)Gal(b1-3)GalNAc(b1-3)Gal(a1-4)Gal(b1-4)Glc
Outline: as §1

[5] = biological target: Fuc(a1-2)Gal(b1-3)GalNAc(b1-4)[Neu5Ac(a2-3)]Gal(b1-4)Glc
Outline: as §1

Fuc(a1-2)Gal(b1-3)GlcNAc = biological target: Fuc(a1-2)Gal(b1-3)GlcNAc
Outline: as §1

[6] = biological target: Fuc(a1-2)Gal(b1-3)GlcNAc(b1-2)Man(a1-3)[Fuc(a1-2)Gal(b1-3)GlcNAc(b1-2)Man(a1-6)]Man(b1-4)GlcNAc(b1-4)GlcNAc
Outline: as §1

[7] = biological target: Fuc(a1-2)Gal(b1-3)GlcNAc(b1-2)Man(a1-3)[Fuc(a1-2)Gal(b1-3)GlcNAc(b1-2)Man(a1-6)]Man(b1-4)GlcNAc(b1-4)[Fuc(a1-6)]GlcNAc
Outline: as §1

[8] = biological target: Fuc(a1-2)Gal(b1-3)GlcNAc(b1-3)Gal(b1-4)Glc
Outline: as §1

[9] = biological target: Fuc(a1-2)Gal(b1-3)GlcNAc(b1-3)GalNAc
Outline: as §1

[10] = biological target: Fuc(a1-2)Gal(b1-3)GlcNAc(b1-3)[Fuc(a1-2)Gal(b1-3)GlcNAc(b1-6)]GalNAc
Outline: as §1

[11] = biological target: Fuc(a1-2)Gal(b1-3)GlcNAc(b1-3)[Gal(b1-4)GlcNAc(b1-6)]Gal(b1-4)Glc
Outline: as §1

[12] = biological target: Fuc(a1-2)Gal(b1-3)GlcNAc(b1-3)[Neu5Ac(a2-6)Gal(b1-4)GlcNAc(b1-6)]Gal(b1-4)Glc
Outline: as §1

[13] = biological target: Fuc(a1-2)Gal(b1-3)GlcNAc6S
Outline: as §1

[14] = biological target: Fuc(a1-2)Gal(b1-3)[Fuc(a1-4)]GlcNAc
Outline: as §1

[15] = biological target: Fuc(a1-2)Gal(b1-3)[Fuc(a1-4)]GlcNAc(b1-2)Man(a1-3)[Fuc(a1-2)Gal(b1-3)[Fuc(a1-4)]GlcNAc(b1-2)Man(a1-3)]Man(b1-4)GlcNAc(b1-4)GlcNAc
Outline: as §1

[16] = biological target: Fuc(a1-2)Gal(b1-3)[Fuc(a1-4)]GlcNAc(b1-2)Man(a1-3)[Fuc(a1-2)Gal(b1-3)[Fuc(a1-4)]GlcNAc(b1-2)Man(a1-6)]Man(b1-4)GlcNAc(b1-4)[Fuc(a1-6)]GlcNAc(b1-4)[Fuc(a1-6)]GlcNAc
Outline: as §1

[17] = biological target: Fuc(a1-2)Gal(b1-3)[Fuc(a1-4)]GlcNAc(b1-3)[Fuc(a1-3)[Gal(b1-4)]GlcNAc(b1-6)]Gal(b1-4)Glc
Outline: as §1

[18] = biological target: Fuc(a1-2)Gal(b1-3)[Fuc(a1-4)]GlcNAc(b1-3)[Gal(b1-4)GlcNAc(b1-6)]Gal(b1-4)Glc
Outline: as §1

Fuc(a1-2)Gal(b1-4)Glc = biological target: Fuc(a1-2)Gal(b1-4)Glc
Outline: as §1

Fuc(a1-2)Gal(b1-4)Glc6S = biological target: Fuc(a1-2)Gal(b1-4)Glc6S
Outline: as §1

Fuc(a1-2)Gal(b1-4)GlcNAc = biological target: Fuc(a1-2)Gal(b1-4)GlcNAc
Outline: as §1

[19] = biological target: Fuc(a1-2)Gal(b1-4)GlcNAc(b1-2)Man
Outline: as §1

[20] = biological target: Fuc(a1-2)Gal(b1-4)GlcNAc(b1-2)Man(a1-3)[Fuc(a1-2)Gal(b1-4)GlcNAc(b1-2)Man(a1-6)]Man(b1-4)GlcNAc(b1-4)GlcNAc
Outline: as §1

[21] = biological target: Fuc(a1-2)Gal(b1-4)GlcNAc(b1-2)Man(a1-3)[Fuc(a1-2)Gal(b1-4)GlcNAc(b1-2)Man(a1-6)]Man(b1-4)GlcNAc(b1-4)[Fuc(a1-6)]GlcNAc
Outline: as §1

[22] = biological target: Fuc(a1-2)Gal(b1-4)GlcNAc(b1-2)[Fuc(a1-2)Gal(b1-4)GlcNAc(b1-4)]Man(a1-3)[Fuc(a1-2)Gal(b1-4)GlcNAc(b1-2)Man(a1-6)]Man(b1-4)GlcNAc(b1-4)GlcNAc
Outline: as §1

[23] = biological target: Fuc(a1-2)Gal(b1-4)GlcNAc(b1-3)Gal(b1-4)GlcNAc
Outline: as §1

[24] = biological target: Fuc(a1-2)Gal(b1-4)GlcNAc(b1-3)Gal(b1-4)GlcNAc(b1-2)Man(a1-3)[Fuc(a1-2)Gal(b1-4)GlcNAc(b1-3)Gal(b1-4)GlcNAc(b1-2)Man(a1-6)]Man(b1-4)GlcNAc(b1-4)GlcNAc
Outline: as §1

B1: PhypaEULS3 (Physcomitrella patens) (protein)
chain: MLPVRLHCKADPNFNLAAVPGQGPVMVPFSPNDDFQVWYKDVTMSTRVKDETGSSAFSLINKATGQALRHAPEDLAQCLLADYDSNALDQTVLWTMSEDMGQGYCCIRLASQITRNLDVFRGDKKSGGVKEGSPVITFAWKKQDNQIWKMITAILEQKLISEEDLNSAVDHHHHHH
Question: B1 was tested. Which “glycan array binding signal (z-score)” value (Fuc(a1-2)Gal) did it give?
Answer: -0.732

Question: What about the “glycan array binding signal (z-score)” value (Fuc(a1-2)Gal(b1-3)GalNAc) of the same binder?
Answer: -0.01

Question: What about the “glycan array binding signal (z-score)” value [1] of the same binder?
Answer: -0.837

Question: What about the “glycan array binding signal (z-score)” value [2] of the same binder?
Answer: 0.874

Question: And the “glycan array binding signal (z-score)” value [3]?
Answer: 1.04

Question: What about the “glycan array binding signal (z-score)” value [4] of the same binder?
Answer: 0.597

Question: What about the “glycan array binding signal (z-score)” value [5] of the same binder?
Answer: 0.158

Question: What about the “glycan array binding signal (z-score)” value (Fuc(a1-2)Gal(b1-3)GlcNAc) of the same binder?
Answer: -0.291

Question: And the “glycan array binding signal (z-score)” value [6]?
Answer: -0.748

Question: And the “glycan array binding signal (z-score)” value [7]?
Answer: 0.789

Question: And the “glycan array binding signal (z-score)” value [8]?
Answer: 1.06

Question: What about the “glycan array binding signal (z-score)” value [9] of the same binder?
Answer: -0.129

Question: What about the “glycan array binding signal (z-score)” value [10] of the same binder?
Answer: -1.26

Question: And the “glycan array binding signal (z-score)” value [11]?
Answer: 1.49

Question: And the “glycan array binding signal (z-score)” value [12]?
Answer: 1.2

Question: And the “glycan array binding signal (z-score)” value [13]?
Answer: 0.008

Question: And the “glycan array binding signal (z-score)” value [14]?
Answer: 0.084

Question: What about the “glycan array binding signal (z-score)” value [15] of the same binder?
Answer: 1.81

Question: And the “glycan array binding signal (z-score)” value [16]?
Answer: 1.62

Question: What about the “glycan array binding signal (z-score)” value [17] of the same binder?
Answer: -0.777

Question: And the “glycan array binding signal (z-score)” value [18]?
Answer: 0.267

Question: What about the “glycan array binding signal (z-score)” value (Fuc(a1-2)Gal(b1-4)Glc) of the same binder?
Answer: -1.92

Question: And the “glycan array binding signal (z-score)” value (Fuc(a1-2)Gal(b1-4)Glc6S)?
Answer: -1.86

Question: And the “glycan array binding signal (z-score)” value (Fuc(a1-2)Gal(b1-4)GlcNAc)?
Answer: 0.243

Question: And the “glycan array binding signal (z-score)” value [19]?
Answer: 1.32

Question: And the “glycan array binding signal (z-score)” value [20]?
Answer: -0.351

Question: And the “glycan array binding signal (z-score)” value [21]?
Answer: 0.143

Question: And the “glycan array binding signal (z-score)” value [22]?
Answer: -0.267

Question: And the “glycan array binding signal (z-score)” value [23]?
Answer: 1.14

Question: And the “glycan array binding signal (z-score)” value [24]?
Answer: 0.946
